Assay results as given in patent US6514734B1, “Polybifunctional reagent having a polymeric backbone and latent reactive moieties and bioactive groups” (Surmodics, Inc., priority 1997, dated 2003).
Some of these results come from one statement about several compounds together.

System: Calf pulmonary artery endothelial (CPAE) cells
Experiment: Cell attachment activity of immobilized peptides (MTT)
Type: cell-based
Conditions: photoimmobilized; for cell attachment, fold improvements (lesser): F-9 polymer on PU, C/H-V polymer on SR and PU; for cell attachment, fold improvements (greatest): RGD polymer on all three biomaterials, F-9 polymer on PS
Experimental: Calf pulmonary artery endothelial (CPAE) cells were purchased from ATCC (American Type Culture Collection, Rockville, Md.) and cultured as indicated by ATCC. The attachment assays were conducted in 48-well PS culture plates. When PU and SR were evaluated, discs of each material (with or without coatings) were placed in the bottoms of the culture plate wells. When PS was evaluated, the bottoms of the wells were coated. For each assay, uncoated and peptide coated biomaterials (PS, PU, and SR) were seeded at 50,000 cells per well in serum free media containing 2 mg/ml of bovine serum albumin (BSA fraction V, from Sigma Chemical Company, St. Louis, Mo.). The cells were allowed to attach to each biomaterial for two hours. Then the unattached cells were removed by aspiration, and the wells were rinsed twice with Hank's Balanced Salt Solution (Celox Corp., Hopkins, Minn.). Finally, the attached cells were quantitated by the addition of culture media containing a metabolic dye, MTT [3-(4,5-dimethylthiazol-2-yl)-2,5-diphenyltetrazolium bromide] which is converted from a yellow tetrazolium salt into an insoluble, purple formazan in the presence of viable cells. After a two hour incubation in culture media containing MTT, the media was removed, and the formazan dye that had been deposited inside the viable cells was solubilized (with acidic isopropanol) and read on a spectrophotometer at 570 nm. The absorbance of the formazan is directly proportional to the number of attached, viable cells present per well.
The following table summarizes results of cell attachment assays comparing immobilized peptide polymers and adsorbed peptide reagent controls. In each case, the relative numbers of cells that attached to the peptide-coated biomaterials (as determined by MTT dye) were divided by the number of cells that attached to the uncoated (UC) biomaterials to obtain a relative cell attachment score. Each value represents the average of 1 to 4 different experiments, with each experiment being conducted with 3 or 4 replicates. The peptides were immobilized onto PS using the wet immobilization protocol described herein and the peptides were immobilized onto SR and PU via the dry immobilization protocol. Immobil. Peptide Polymer refers to illuminated peptide polymer. Adsorbed Peptide Reagent refers to nonilluminated peptide reagent. ND=not determined.

Row | Substance | cell attachment, fold improvements (lesser) | cell attachment, fold improvements (greatest)
1 | C/H-V polymer: photoreactive polyacrylamide copolymer of C/H-V peptide monomer (SEQ ID NO: 9), BBA-APMA and acrylamide (CKKWQPPRARI; polyacrylamide copolymer with BBA-APMA) | 1.3 to 1.9 fold | –
2 | RGD polymer: photoreactive polyacrylamide copolymer of RGD peptide monomer (SEQ ID NO:8), BBA-APMA and acrylamide (CKKGRGDSPAF; polyacrylamide copolymer with BBA-APMA) | – | 4.3 to 10 fold
3 | F-9 polymer: photoreactive polyacrylamide copolymer of F-9 peptide monomer (SEQ ID NO:11), BBA-APMA and acrylamide (RYVVLPRPVCFEKK; polyacrylamide copolymer with BBA-APMA) | 1.3 to 1.9 fold | 4.3 to 10 fold
